Measurements taken from PMC12334701.
Results are given in words; binding and its absence hold for the method and conditions named. In cells and extracts the contact can be indirect. Some entries that bind do so weakly or less than the wild type.

Amino acid sequences for entries named in this document (tags omitted).
UniProt P23198: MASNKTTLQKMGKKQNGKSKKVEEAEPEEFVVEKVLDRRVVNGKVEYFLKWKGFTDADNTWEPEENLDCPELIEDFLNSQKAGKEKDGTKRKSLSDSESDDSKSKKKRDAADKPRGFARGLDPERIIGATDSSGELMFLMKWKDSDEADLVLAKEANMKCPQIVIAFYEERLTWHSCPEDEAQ
UniProt Q6Q783: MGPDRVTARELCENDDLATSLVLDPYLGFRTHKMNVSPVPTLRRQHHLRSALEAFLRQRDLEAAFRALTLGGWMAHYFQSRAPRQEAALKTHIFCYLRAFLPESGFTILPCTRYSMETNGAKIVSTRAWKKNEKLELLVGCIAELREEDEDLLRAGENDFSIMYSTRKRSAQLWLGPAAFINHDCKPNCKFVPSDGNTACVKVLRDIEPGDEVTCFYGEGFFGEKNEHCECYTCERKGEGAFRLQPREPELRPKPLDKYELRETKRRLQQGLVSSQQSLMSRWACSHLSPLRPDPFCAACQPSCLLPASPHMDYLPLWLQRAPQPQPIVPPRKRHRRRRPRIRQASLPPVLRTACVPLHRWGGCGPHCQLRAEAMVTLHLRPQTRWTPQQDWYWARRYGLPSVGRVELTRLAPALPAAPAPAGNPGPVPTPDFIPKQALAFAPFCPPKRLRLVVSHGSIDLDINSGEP

Target: HP1γ with C-terminal GFP (pCAG-HP1γ-GFP) (mouse) (UniProt P23198)
Test: co-IP; HEK293T cells transfected with GFP-tagged HP1 constructs and myc-DKK-tagged SUV420H2; RIPA lysates, sonicated; IP with mouse anti-myc 9B11 or goat anti-GFP and protein G sepharose, 4 °C; western blot

With “SUV420H2 with C-terminal myc-DKK (from UniProt Q6Q783 1-468) (enzyme)” as the substance, how does the binding read?
Its binding is “binds”.
